Experiment: Bulk density, tapped density and Carr Index (flowability) of powders and granules
Format: physicochemical
Experimental: The Carr Index is calculated by the formula 100×(1−BD/TD) and is used as an indication of the flowability.

With `COc1ccc2cc([C@H](C)C(=O)O)ccc2c1` [Naproxen Sodium, naproxen sodium] the “BD (bulk density)” value was 0.30 g/mL, the “TD (tapped density)” value was 0.55 g/mL and the “Carr Index” value (100×(1−BD/TD), greater than 25 indicates poor flowability) was 45.

Source: patent US20220280462A1, “SOLID ORAL DOSAGE FORM COMPRISING NAPROXEN AND VITAMIN B1” (DSM IP ASSETS B.V., priority 2019, published 2022)
